PubChem BioAssay AID1224830 – NIAID | 2016

- Aim: 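Genes whose knock-down alters the TNF-alpha reporter response to LPS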 (primary screen)
- Cell system: human THP-1 monocytic leukaemia cells, TNF dual-luciferase reporter clone, PMA-differentiated to macrophage-like cells
- Reagent: siRNA pool against human genes, 50 nM
- Duration: LPS for 4 h, given about 3 days after siRNA transfection
- Treatment: bacterial LPS (TLR4 ligand), 10 ng/ml
- Measurement: 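Ratio of firefly to renilla light, scaled to the plate median and expressed as a robust z-score per replicate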
- Direction: TNF reporter robust z-score: higher = stronger TNF reporter response to LPS
- Rule for the call: 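Each well counts as active if its z-score is over 2.8 or under -1.5; controls are left without a call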
This is a random part of about 18,000 reagents tested. Over the whole deposit, about 2,900 (16%) were called active. 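Calls are made per well; low scores hint the gene aids the LPS response, high scores that it dampens it.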 Entries without a mark were called inactive. Repeated entries: four replicate wells of each siRNA pool.

no.	Gene	TNF reporter robust z-score
1	TCHP (trichoplein keratin filament binding)	0.39
2	TCHP (trichoplein keratin filament binding)	-0.03
3	TCHP (trichoplein keratin filament binding)	0.5
4	TCHP (trichoplein keratin filament binding)	1.37
5	DXO (decapping exoribonuclease)	-1.17
6	DXO (decapping exoribonuclease)	-1.01
7	DXO (decapping exoribonuclease)	-0.87
8	DXO (decapping exoribonuclease)	-0.89
9	HIBADH (3-hydroxyisobutyrate dehydrogenase)	-0.49
10	HIBADH (3-hydroxyisobutyrate dehydrogenase)	-0.46
11	HIBADH (3-hydroxyisobutyrate dehydrogenase)	-0.65
12	HIBADH (3-hydroxyisobutyrate dehydrogenase)	-1.47
13	POLN (DNA polymerase nu)	-0.53
14	POLN (DNA polymerase nu)	-0.22
15	POLN (DNA polymerase nu)	-0.16
16	POLN (DNA polymerase nu)	0.37
17	ZFYVE1 (zinc finger FYVE-type containing 1)	-0.47
18	ZFYVE1 (zinc finger FYVE-type containing 1)	0.16
19	ZFYVE1 (zinc finger FYVE-type containing 1)	-0.59
20	ZFYVE1 (zinc finger FYVE-type containing 1)	-0.14
21	ZNF85 (zinc finger protein 85)	-2.38 (active)
22	ZNF85 (zinc finger protein 85)	-2.21 (active)
23	ZNF85 (zinc finger protein 85)	-2.05 (active)
24	ZNF85 (zinc finger protein 85)	-2.14 (active)
25	API5 (apoptosis inhibitor 5)	-0.36
26	API5 (apoptosis inhibitor 5)	-0.04
27	API5 (apoptosis inhibitor 5)	-0.03
28	API5 (apoptosis inhibitor 5)	-0.72
29	ELAC1 (elaC ribonuclease Z 1)	-0.85
30	ELAC1 (elaC ribonuclease Z 1)	-0.82
31	ELAC1 (elaC ribonuclease Z 1)	-0.86
32	ELAC1 (elaC ribonuclease Z 1)	0.66
33	CORT (cortistatin)	0.31
34	CORT (cortistatin)	0.33
35	CORT (cortistatin)	0.87
36	CORT (cortistatin)	-0.55
37	AARSD1 (alanyl-tRNA synthetase domain containing 1)	-0.03
38	AARSD1 (alanyl-tRNA synthetase domain containing 1)	0.32
39	AARSD1 (alanyl-tRNA synthetase domain containing 1)	-0.43
40	AARSD1 (alanyl-tRNA synthetase domain containing 1)	0.14
41	MTF2 (metal response element binding transcription factor 2)	0.15
42	MTF2 (metal response element binding transcription factor 2)	-1.21
43	MTF2 (metal response element binding transcription factor 2)	-1.18
44	MTF2 (metal response element binding transcription factor 2)	-0.57
45	NYX (nyctalopin)	0.26
46	NYX (nyctalopin)	-0.33
47	NYX (nyctalopin)	-0.1

Targets above whose gene name begins with E or e:
Gene	TNF reporter robust z-score
ELAC1 (elaC ribonuclease Z 1)	-0.85
ELAC1 (elaC ribonuclease Z 1)	-0.82
ELAC1 (elaC ribonuclease Z 1)	-0.86
ELAC1 (elaC ribonuclease Z 1)	0.66
